Data as given in the supplement of paper PMC10849652.
The list shows a part of the results.

The chains behind the UniProt entries cited, without tags or fusion partners. Where a name states a change or a piece, a line headed by the entry shows the natural chain unless it says otherwise.
UniProt O75718: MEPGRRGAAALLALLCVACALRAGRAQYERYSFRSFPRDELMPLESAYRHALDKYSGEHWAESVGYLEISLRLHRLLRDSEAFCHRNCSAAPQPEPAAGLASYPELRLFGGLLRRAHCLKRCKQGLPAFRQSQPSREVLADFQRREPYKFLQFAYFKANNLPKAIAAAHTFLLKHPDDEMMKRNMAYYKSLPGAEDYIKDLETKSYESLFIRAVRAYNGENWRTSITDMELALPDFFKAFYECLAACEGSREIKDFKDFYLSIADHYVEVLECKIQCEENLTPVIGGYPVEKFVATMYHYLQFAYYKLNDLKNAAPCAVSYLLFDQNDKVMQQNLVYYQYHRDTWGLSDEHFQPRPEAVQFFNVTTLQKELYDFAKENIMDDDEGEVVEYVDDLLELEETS
UniProt P35221: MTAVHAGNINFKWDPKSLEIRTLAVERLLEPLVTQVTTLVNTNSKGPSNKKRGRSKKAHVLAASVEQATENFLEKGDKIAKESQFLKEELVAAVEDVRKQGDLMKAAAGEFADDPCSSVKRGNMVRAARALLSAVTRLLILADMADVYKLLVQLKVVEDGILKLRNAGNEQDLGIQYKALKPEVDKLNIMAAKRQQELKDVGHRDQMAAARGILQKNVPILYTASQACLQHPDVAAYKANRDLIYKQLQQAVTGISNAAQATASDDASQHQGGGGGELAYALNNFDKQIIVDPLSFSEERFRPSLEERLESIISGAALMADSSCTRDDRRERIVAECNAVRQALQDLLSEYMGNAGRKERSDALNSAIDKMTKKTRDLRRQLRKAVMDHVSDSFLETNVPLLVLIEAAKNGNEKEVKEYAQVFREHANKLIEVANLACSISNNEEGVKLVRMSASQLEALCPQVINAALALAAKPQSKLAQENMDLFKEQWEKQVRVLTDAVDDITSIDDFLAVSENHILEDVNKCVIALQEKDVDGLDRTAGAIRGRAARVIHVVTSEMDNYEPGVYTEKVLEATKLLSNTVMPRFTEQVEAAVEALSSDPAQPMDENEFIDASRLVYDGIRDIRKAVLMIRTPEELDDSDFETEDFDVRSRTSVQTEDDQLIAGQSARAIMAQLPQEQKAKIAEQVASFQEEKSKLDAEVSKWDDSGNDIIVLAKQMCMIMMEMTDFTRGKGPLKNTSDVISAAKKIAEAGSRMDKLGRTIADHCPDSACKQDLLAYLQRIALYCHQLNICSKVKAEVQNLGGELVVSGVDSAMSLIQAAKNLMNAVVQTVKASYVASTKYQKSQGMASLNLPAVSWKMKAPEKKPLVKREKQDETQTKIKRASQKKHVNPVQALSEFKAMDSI
UniProt O60716: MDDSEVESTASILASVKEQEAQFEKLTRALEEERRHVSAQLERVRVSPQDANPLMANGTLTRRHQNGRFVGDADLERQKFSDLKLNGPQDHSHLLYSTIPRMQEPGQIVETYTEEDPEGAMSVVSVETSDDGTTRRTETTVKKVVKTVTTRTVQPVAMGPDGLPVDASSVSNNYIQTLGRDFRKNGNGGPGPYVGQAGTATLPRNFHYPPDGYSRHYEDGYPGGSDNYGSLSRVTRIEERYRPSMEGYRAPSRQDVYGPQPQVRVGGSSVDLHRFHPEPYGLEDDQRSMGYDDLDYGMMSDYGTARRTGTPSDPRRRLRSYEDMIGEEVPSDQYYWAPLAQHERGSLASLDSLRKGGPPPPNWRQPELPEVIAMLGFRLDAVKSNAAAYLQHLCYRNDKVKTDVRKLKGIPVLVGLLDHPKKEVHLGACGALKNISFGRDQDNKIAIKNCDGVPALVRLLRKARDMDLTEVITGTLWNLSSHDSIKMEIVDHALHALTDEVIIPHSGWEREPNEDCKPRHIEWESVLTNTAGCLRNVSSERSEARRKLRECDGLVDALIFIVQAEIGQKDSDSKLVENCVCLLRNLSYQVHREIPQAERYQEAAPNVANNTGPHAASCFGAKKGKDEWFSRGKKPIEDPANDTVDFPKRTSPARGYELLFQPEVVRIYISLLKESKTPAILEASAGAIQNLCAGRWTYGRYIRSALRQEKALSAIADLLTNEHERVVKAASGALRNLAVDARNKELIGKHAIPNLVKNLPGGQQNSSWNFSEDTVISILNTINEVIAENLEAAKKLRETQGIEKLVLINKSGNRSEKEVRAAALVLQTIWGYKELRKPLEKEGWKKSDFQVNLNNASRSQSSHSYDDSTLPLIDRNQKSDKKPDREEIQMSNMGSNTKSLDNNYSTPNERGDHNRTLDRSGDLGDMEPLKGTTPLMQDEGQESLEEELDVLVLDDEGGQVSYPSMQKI
UniProt P39880: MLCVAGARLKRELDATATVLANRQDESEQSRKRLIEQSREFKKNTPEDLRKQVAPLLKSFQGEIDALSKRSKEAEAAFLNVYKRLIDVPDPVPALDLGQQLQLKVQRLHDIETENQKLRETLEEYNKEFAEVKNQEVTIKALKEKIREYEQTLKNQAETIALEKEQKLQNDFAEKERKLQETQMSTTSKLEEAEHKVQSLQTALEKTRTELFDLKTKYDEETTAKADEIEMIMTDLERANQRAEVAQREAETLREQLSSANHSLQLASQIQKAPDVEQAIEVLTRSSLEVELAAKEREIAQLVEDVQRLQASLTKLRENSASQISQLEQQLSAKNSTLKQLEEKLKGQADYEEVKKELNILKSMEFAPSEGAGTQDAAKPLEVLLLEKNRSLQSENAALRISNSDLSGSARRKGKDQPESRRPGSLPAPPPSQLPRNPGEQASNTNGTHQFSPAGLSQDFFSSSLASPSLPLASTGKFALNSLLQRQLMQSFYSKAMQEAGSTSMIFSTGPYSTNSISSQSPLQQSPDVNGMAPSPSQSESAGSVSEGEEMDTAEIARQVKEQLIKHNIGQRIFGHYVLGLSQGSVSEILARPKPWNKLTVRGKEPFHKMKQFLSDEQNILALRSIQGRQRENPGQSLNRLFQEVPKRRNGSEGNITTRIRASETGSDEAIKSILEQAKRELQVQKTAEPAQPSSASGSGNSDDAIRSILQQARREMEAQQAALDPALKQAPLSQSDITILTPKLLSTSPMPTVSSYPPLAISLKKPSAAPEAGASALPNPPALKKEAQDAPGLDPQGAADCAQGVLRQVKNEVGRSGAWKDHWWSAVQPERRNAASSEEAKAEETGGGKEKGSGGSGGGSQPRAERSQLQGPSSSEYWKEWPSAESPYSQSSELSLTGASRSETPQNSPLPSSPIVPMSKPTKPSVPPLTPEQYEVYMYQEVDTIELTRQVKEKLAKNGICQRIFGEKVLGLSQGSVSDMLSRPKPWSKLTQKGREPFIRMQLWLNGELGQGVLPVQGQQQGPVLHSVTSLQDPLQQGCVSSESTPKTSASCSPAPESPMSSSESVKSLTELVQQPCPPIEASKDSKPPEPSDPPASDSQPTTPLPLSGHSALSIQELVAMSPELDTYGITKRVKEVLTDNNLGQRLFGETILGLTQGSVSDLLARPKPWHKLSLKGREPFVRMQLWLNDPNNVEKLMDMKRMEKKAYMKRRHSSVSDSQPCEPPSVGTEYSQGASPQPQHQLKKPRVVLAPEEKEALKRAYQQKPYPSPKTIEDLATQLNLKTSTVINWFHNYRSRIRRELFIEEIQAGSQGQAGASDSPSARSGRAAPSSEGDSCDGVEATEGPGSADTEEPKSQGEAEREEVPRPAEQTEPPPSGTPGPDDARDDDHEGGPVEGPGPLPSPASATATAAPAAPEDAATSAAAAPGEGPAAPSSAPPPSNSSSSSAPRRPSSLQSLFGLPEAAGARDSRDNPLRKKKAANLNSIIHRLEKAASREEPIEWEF
UniProt Q01459: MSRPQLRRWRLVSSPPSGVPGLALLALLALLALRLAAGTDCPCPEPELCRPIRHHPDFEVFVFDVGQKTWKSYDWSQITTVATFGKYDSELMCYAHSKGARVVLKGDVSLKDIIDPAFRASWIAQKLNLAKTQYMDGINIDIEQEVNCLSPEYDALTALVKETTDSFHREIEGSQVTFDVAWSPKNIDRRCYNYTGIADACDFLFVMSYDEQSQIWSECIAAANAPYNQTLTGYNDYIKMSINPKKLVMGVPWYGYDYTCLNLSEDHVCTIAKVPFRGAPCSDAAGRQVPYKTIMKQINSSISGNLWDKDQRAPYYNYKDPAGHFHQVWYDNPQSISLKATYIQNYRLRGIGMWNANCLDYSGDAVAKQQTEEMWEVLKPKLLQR
UniProt Q69YN2: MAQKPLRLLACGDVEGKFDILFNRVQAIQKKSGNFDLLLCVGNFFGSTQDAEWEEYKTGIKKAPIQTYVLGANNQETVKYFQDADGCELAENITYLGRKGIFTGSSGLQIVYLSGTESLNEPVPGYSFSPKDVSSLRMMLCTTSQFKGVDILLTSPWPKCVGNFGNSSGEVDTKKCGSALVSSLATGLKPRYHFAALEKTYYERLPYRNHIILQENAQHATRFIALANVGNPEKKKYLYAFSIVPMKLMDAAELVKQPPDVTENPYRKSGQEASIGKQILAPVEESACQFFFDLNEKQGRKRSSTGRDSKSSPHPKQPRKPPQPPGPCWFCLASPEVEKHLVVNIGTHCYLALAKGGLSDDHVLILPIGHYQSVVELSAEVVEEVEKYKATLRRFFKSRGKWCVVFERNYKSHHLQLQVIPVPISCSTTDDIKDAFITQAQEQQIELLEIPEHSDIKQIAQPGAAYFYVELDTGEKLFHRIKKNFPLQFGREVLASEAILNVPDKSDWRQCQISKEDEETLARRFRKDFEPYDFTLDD
UniProt Q14247: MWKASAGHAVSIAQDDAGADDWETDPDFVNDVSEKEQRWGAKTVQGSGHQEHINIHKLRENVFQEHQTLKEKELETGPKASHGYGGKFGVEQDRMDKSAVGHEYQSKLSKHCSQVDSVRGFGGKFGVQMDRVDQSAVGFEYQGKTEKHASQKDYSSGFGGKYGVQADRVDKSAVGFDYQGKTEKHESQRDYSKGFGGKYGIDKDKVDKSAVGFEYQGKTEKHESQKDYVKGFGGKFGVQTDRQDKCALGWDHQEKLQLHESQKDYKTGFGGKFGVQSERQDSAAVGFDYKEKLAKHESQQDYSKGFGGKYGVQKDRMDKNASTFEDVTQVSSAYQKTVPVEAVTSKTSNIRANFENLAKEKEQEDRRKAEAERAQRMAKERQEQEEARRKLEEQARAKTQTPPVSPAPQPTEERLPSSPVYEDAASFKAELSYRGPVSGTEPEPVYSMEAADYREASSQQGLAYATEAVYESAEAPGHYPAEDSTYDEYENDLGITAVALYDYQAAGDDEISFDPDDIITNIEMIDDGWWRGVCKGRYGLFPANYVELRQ
UniProt Q8NBI2: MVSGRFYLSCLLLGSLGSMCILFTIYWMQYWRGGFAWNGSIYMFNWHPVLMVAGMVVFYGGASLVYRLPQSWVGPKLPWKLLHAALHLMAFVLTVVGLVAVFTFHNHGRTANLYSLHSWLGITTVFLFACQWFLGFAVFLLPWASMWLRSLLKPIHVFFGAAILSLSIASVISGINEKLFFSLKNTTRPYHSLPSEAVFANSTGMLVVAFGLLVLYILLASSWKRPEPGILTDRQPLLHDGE
UniProt O75629: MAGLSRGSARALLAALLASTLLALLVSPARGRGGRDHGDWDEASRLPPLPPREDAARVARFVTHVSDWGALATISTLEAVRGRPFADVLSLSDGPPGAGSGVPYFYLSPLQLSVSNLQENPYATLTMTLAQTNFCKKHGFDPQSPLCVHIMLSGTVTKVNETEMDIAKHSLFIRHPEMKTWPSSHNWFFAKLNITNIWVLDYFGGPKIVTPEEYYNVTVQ
UniProt Q9BZJ0: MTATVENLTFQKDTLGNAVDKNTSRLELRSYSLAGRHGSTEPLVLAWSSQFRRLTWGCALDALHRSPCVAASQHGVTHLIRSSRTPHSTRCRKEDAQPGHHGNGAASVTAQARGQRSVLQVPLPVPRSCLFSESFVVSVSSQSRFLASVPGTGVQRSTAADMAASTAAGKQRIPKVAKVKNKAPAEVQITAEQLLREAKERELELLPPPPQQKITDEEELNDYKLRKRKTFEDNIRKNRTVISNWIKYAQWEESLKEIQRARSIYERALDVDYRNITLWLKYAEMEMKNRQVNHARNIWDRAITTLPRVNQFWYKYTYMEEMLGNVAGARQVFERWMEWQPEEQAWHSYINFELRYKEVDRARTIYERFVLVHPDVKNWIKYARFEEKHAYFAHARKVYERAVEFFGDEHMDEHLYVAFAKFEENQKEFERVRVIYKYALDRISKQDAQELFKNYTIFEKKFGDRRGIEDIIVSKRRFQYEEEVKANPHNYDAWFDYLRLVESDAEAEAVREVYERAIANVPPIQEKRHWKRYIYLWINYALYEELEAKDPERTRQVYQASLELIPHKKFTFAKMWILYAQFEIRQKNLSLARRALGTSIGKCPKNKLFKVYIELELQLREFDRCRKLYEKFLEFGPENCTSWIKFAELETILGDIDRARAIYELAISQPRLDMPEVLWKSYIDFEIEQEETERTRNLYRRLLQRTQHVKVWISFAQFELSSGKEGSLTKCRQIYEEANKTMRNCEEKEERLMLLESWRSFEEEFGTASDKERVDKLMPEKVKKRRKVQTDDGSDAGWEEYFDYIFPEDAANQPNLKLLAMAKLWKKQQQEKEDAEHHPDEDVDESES

compound: CC[C@@H]1C(=O)N(C)c2cnc(Nc3ccc(C(=O)NC4CCN(C)CC4)cc3OC)nc2N1C1CCCC1; experiment: log2 fold change, soluble protein after heating vs DMSO (PISA); higher = thermal stabilisation; K562 lysate, 10 uM; active = over 0.2 and 3.5 SD of the protein, either way, in both replicates (recomputed)
Summary of the method: (§1)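 Pellets of K562 cells were dounce-homogenised in PBS pH 7.4 with 1 mM MgCl2, and the crude extract was held at 1 mg/mL protein for a 30 min treatment with 10 μM compound. Aliquots were heated for 3 min over 48°C-58°C and pooled before NP-40 was added to 0.5% at 4°C. The supernatant from 21,000xg for 90 min was quantified by TMTpro 16plex LC-MS/MS with channel sums equalised. Values are reported from duplicates as log-two fold change in thermal stability relative to solvent controls.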

Target	log2 fold change
CRTAP (UniProt O75718)	inactive: -0.069
CRBN (UniProt Q96SW2)	inactive: 0.045
CT45A10 (UniProt P0DMU9)	inactive: -0.013
CRLF3 (UniProt Q8IUI8)	inactive: -0.006
CTNNA1 (UniProt P35221)	inactive: 0.004
CYC1 (UniProt P08574)	inactive: -0.077
CTNND1 isoform 3 (UniProt O60716)	inactive: -0.034
CUL2 isoform 2 (UniProt Q13617)	inactive: -0.023
CT47A1 (UniProt Q5JQC4)	inactive: 0.056
CUX1 isoform 3 (UniProt P39880)	inactive: 0.028
CSE1L (UniProt P55060)	inactive: -0.059
CRTC1 (UniProt Q6UUV9)	inactive: 0.051
CTBS (UniProt Q01459)	inactive: 0.025
CUL1 (UniProt Q13616)	inactive: 0.034
CWF19L1 (UniProt Q69YN2)	inactive: 0.006
CYB5R3 isoform 3 (UniProt P00387)	inactive: 0.023

Target	log2 fold change
CTTN (UniProt Q14247)	inactive: 0.038
CYB561A3 isoform 2 (UniProt Q8NBI2)	inactive: 0.022
CUL5 (UniProt Q93034)	inactive: -0.009
CROCC (UniProt Q5TZA2)	inactive: -0.135
CREG1 (UniProt O75629)	inactive: 0.055
CYB5R2 (UniProt Q6BCY4)	inactive: 0.029
CXXC1 isoform 2 (UniProt Q9P0U4)	inactive: -0.256
CSNK2A1 (UniProt P68400)	inactive: -0.057
CSRP3 (UniProt P50461)	inactive: -0.003
CUTC (UniProt Q9NTM9)	inactive: -0.031
CRNKL1 (UniProt Q9BZJ0)	inactive: -0.199
CREBBP (UniProt Q92793)	inactive: 0.042
CYB5R4 (UniProt Q7L1T6)	inactive: 0.023
CTPS1 (UniProt P17812)	inactive: -0.065
CRELD2 isoform 5 (UniProt Q6UXH1)	inactive: 0.081
CWF19L2 (UniProt Q2TBE0)	inactive: 0.082

compound: CC[C@@H]1C(=O)N(C)c2cnc(Nc3ccc(C(=O)N[C@H]4CC[C@H](N5CCN(CC6CC6)CC5)CC4)cc3OC)nc2N1C(C)C [volasertib]; experiment: as above
Summary of the method: as §1

Target	log2 fold change
CRTAP (UniProt O75718)	inactive: -0.012
CRBN (UniProt Q96SW2)	inactive: -0.034
CT45A10 (UniProt P0DMU9)	inactive: 0.003
CRLF3 (UniProt Q8IUI8)	inactive: -0.038
CTNNA1 (UniProt P35221)	inactive: 0.021
CYC1 (UniProt P08574)	inactive: 0.005
CTNND1 isoform 3 (UniProt O60716)	inactive: -0.098
CUL2 isoform 2 (UniProt Q13617)	inactive: -0.022
CT47A1 (UniProt Q5JQC4)	inactive: -0.023
CUX1 isoform 3 (UniProt P39880)	inactive: -0.004
CSE1L (UniProt P55060)	inactive: -0.009
CRTC1 (UniProt Q6UUV9)	inactive: 0.002
CTBS (UniProt Q01459)	inactive: -0.054
CUL1 (UniProt Q13616)	inactive: 0.029
CWF19L1 (UniProt Q69YN2)	inactive: -0.016
CYB5R3 isoform 3 (UniProt P00387)	inactive: 0.008

Target	log2 fold change
CTTN (UniProt Q14247)	inactive: 0.033
CYB561A3 isoform 2 (UniProt Q8NBI2)	inactive: 0.029
CUL5 (UniProt Q93034)	inactive: 0.012
CROCC (UniProt Q5TZA2)	inactive: -0.085
CREG1 (UniProt O75629)	inactive: 0.041
CYB5R2 (UniProt Q6BCY4)	inactive: 0.016
CXXC1 isoform 2 (UniProt Q9P0U4)	inactive: -0.027
CSNK2A1 (UniProt P68400)	inactive: -0.039
CSRP3 (UniProt P50461)	inactive: 0.049
CUTC (UniProt Q9NTM9)	inactive: 0.024
CRNKL1 (UniProt Q9BZJ0)	inactive: -0.044
CREBBP (UniProt Q92793)	inactive: -0.074
CYB5R4 (UniProt Q7L1T6)	inactive: -0.034
CTPS1 (UniProt P17812)	inactive: -0.04
CRELD2 isoform 5 (UniProt Q6UXH1)	inactive: -0.022
CWF19L2 (UniProt Q2TBE0)	inactive: -0.079

compound: CCn1c(C(=O)N(C2CC2)C2CC2)cc2c3c(ncn3C)c(Nc3cc(C)n(C)n3)nc21; experiment: as above
Summary of the method: as §1

Target	log2 fold change
CRTAP (UniProt O75718)	inactive: 0.106
CRBN (UniProt Q96SW2)	inactive: -0.03
CT45A10 (UniProt P0DMU9)	inactive: 0.068
CRLF3 (UniProt Q8IUI8)	inactive: -0.014
CTNNA1 (UniProt P35221)	inactive: -0.034
CYC1 (UniProt P08574)	inactive: 0.01
CTNND1 isoform 3 (UniProt O60716)	inactive: 0.073
CUL2 isoform 2 (UniProt Q13617)	inactive: 0.011
CT47A1 (UniProt Q5JQC4)	inactive: -0.062
CUX1 isoform 3 (UniProt P39880)	inactive: -0.006
CSE1L (UniProt P55060)	inactive: 0.03
CRTC1 (UniProt Q6UUV9)	inactive: 0.044
CTBS (UniProt Q01459)	inactive: -0.059
CUL1 (UniProt Q13616)	inactive: 0.004
CWF19L1 (UniProt Q69YN2)	inactive: 0.014
CYB5R3 isoform 3 (UniProt P00387)	inactive: -0.079

Target	log2 fold change
CTTN (UniProt Q14247)	inactive: 0.002
CYB561A3 isoform 2 (UniProt Q8NBI2)	inactive: -0.04
CUL5 (UniProt Q93034)	inactive: -0.002
CROCC (UniProt Q5TZA2)	inactive: 0.152
CREG1 (UniProt O75629)	inactive: -0.032
CYB5R2 (UniProt Q6BCY4)	inactive: 0.01
CXXC1 isoform 2 (UniProt Q9P0U4)	inactive: 0.031
CSNK2A1 (UniProt P68400)	inactive: 0.006
CSRP3 (UniProt P50461)	inactive: -0.063
CUTC (UniProt Q9NTM9)	inactive: -0.043
CRNKL1 (UniProt Q9BZJ0)	inactive: -0.071
CREBBP (UniProt Q92793)	inactive: -0.017
CYB5R4 (UniProt Q7L1T6)	inactive: 0.001
CTPS1 (UniProt P17812)	inactive: 0.026
CRELD2 isoform 5 (UniProt Q6UXH1)	inactive: 0.038
CWF19L2 (UniProt Q2TBE0)	inactive: 0.013
